# At least one structure is not confirmed: it was looked up by name or label, or the drawing left a doubt.
# Tests used:
# nasal polyps [1] = test: Case treatment of a patient with Widal's Syndrome with omeprazole added to budesonide and deflazacort (Example 1); assay type: in vivo, human; conditions: person
# nasal polyps [2] = test: Two week treatment of nine patients with omeprazole, intranasal budesonide and oral deflazacort (Examples 2 to 10); assay type: in vivo, human; conditions: for Result: two weeks, 20 mg omeprazole, 100 μg intranasal budesonide, 3 to 15 mg oral deflazacort
# Protocol: Nine patients, each with the conditions shown in the following Table 1, were treated during a two week period. The treatment consisted of 20 mg of omeprazole, 100 μg of intranasal budesonide and 3 to 15 mg of oral deflazacort (deflazacort was used in such a small quantity to ensure the patients' compliance).
smiles,measurement,setting,value
COc1ccc2[nH]c([S+]([O-])Cc3ncc(C)c(OC)c3C)nc2c1 (centres unmarked) [omeprazole],outcome of the polyps,"nasal polyps [1]; eventually, on 20 mg omeprazole per day plus budesonide and deflazacort",recovered completely from the polyps
same,nasal respiratory problem,nasal polyps [1]; within two weeks of 20 mg omeprazole per day plus 100 μg budesonide per nostril b.i.d. and 6 mg deflazacort per day,progressive improvement in their nasal respiratory problem
same,result at the end of the initial 2 week treatment period,"nasal polyps [2]; patient of Example 5, Nasal Polyposis",no benefit
same,result at the end of 2 months,"nasal polyps [2]; patient of Example 5, Nasal Polyposis, continued with omeprazole",positive effect
same,Result,nasal polyps [2]; patient with Nasal Polyposis and asthma (Example 10),No benefit
same,size of the polyps after treatment with the same regimen was resumed,"nasal polyps [2]; patient with temporary benefit (Example 2, Widal's Syndrome)",marked reduction in the size of the polyps
same,course after withdrawal of omeprazole and deflazacort,"nasal polyps [2]; patient with temporary benefit (Example 2, Widal's Syndrome), budesonide taken as required",recurrence of the polyposis
same,Result,nasal polyps [2]; patients with Nasal Polyposis (Examples 5-8),No benefit
